Results published in PMC2978108.

Protein sequences, listed by entry. Tags and fused reporters are not part of them.
UniProt P13466: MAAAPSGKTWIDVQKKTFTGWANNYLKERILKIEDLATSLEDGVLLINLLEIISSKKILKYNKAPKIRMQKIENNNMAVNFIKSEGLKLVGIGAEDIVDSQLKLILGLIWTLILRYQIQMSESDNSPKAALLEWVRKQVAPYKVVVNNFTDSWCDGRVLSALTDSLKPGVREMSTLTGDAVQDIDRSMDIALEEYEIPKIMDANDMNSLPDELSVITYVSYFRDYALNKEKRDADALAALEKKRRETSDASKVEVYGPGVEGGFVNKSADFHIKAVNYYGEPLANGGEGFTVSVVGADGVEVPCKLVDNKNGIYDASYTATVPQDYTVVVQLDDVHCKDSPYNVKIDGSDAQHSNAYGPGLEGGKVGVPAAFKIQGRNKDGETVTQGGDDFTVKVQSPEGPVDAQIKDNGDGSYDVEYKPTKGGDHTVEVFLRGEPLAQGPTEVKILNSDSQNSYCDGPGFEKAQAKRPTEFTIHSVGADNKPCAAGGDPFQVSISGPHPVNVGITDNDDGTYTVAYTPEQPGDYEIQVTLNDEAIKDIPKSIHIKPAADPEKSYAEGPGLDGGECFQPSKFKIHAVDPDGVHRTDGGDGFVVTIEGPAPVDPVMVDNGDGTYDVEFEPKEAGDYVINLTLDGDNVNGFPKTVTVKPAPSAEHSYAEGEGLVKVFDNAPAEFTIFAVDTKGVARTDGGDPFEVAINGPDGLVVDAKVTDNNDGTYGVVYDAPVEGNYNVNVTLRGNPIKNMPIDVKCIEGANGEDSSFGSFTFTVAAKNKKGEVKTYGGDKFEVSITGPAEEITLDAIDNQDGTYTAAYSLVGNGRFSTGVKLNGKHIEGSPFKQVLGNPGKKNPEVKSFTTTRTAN

Target: Filamin (endogenous, D. discoideum) (D. discoideum (endogenous in AX2)) (UniProt P13466)
Test: affinity purification with mass spectrometry; immunoprecipitation with Filamin monoclonal antibodies followed by MALDI-TOF mass spectrometry

- binding: binds
B1: GAPA (found in the Filamin immunoprecipitate) (protein, UniProt O00899 1-860)
chain: MEGLEIEDEDVILLDEDDDSSSSSTVNNSSSNIKNNGNTNNNIGNDDSNKVTLMTSLREKGWGSGMLVDKEKNQYGTIKSYKDDKSSPWFEERQVIATLYKARVLLHEMIYTKMNQERLLSGNLCVGEIQSLLNTQKEDVETDWIAEIQELKRNMVAEIRRNHLLERDVNKLDKRIALLIKHRSNIKDLLLEQNKGKKDKKKKGDDKAEYITLDQKQLESYQNLFYLLQTEPHYLAKLVTLIQADQMEDFLDTVFLTLFGDDFSPREEFLILSLFRLAIGQEMSRIKSAGDLLAVESVVPKMIITYTRRKQGHEFLKQIIAPILENNVVNAPDLNLELNAVQVYQNMISEQEIQTGAKSTLNRGLAEDQIIQLKEVQSILEPRVEKCIQICERFFTGIIQSLNRLPYGIRWICKQIQSIAQKNFDSKPDEIAKVIGYFVYYRFINLAIVTPDAFEILDKELSITSRKNLVNIAKVLQNLFTLKTFQNQGSERWMQPLNKWILSKTSIVRQYLEDLIQVTDPSEYLRVDKYNELTLKLNPVVVISLGEISQTHRLLIANLAALKMKEKEDPLELILKALPAPLEVVDENDREIQLTLINRFKENIEKEISISASLLAETKELVISVLRSIPIQQKQQQQQHDDEKRDDLISILQNAIKHGKETNNPQLSSNAEKIINNLKKMEAEGSIQSENNQYEGFIKVIALEVINRQEIREQQRKERMRLTIALRDLRKHQSYLNDQIQHYTSYLKDVLLHYGPKDKKKSTKPMKISFKELTKKGVIVESDIPKLSHGSTSFYISSDAPGIFDIEARIGVASVGTLSLSLDDLLDKSSAGIPYLKLENIVLDVNMTLHLLNRHFLKNI

Results are given in words; binding and its absence hold for the method and conditions named. In cells and extracts the contact can be indirect. Here binding means that the protein was enriched with, or labelled near, the bait; the list need not be complete.
